Among the data in article PMC4295397 are binding values, retold here.

By UniProt entry, the sequences of proteins in these tests, tags left out.
UniProt Q9P287: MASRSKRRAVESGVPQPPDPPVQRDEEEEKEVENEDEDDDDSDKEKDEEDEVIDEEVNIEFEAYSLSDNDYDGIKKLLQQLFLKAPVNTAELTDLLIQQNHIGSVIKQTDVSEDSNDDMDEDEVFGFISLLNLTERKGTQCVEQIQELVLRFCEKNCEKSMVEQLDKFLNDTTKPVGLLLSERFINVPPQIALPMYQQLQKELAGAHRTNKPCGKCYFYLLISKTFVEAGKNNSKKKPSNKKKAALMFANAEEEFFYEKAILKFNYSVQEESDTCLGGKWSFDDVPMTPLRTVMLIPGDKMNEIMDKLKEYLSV
UniProt Q96AE4: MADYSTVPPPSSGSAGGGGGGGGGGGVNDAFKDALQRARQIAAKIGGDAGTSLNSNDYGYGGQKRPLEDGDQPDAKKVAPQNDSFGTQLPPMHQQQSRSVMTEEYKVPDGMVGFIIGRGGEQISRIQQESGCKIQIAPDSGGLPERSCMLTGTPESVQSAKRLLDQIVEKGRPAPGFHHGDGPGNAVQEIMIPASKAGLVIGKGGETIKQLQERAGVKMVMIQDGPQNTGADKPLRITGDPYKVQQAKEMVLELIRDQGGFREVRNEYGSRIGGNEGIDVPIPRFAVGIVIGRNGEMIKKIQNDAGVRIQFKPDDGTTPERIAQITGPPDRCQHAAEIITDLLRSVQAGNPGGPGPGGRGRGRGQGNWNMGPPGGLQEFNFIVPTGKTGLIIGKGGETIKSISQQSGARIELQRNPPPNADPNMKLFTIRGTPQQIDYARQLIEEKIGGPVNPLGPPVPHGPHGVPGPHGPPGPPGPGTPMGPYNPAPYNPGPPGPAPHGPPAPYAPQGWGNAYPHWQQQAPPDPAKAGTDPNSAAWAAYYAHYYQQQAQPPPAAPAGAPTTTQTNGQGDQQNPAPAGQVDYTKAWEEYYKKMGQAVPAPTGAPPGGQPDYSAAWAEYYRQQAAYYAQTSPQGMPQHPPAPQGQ

These are yes or no findings as the source states them, for the method shown. In cells and extracts the contact can be indirect. Some results given as binding are weak or reduced against the parent protein; the word gives no strength.

Assay [1] has as its target BCCIP (brca2 and cdkn1a interacting protein), endogenous in Huh7 cells (human (endogenous in Huh7)) (UniProt Q9P287). As to the kind of experiment: co-IP; endogenous proteins of Huh7 cell lysate (50 mM Tris-HCl pH 7.4, 150 mM NaCl, 1% Triton X-100), treated with benzonase; IP with anti-FBP1 or anti-BCCIP antibody, protein A/G Plus agarose, 4°C; Western blot.
Assay [2] concerns the target FUSE binding protein1 (FBP1), endogenous in Huh7 cells (human (endogenous in Huh7)) (UniProt Q96AE4). The assay is described as above.

Regarding “FUSE binding protein1 (FBP1), endogenous in Huh7 cells (from UniProt Q96AE4 1-644)”, the binding entry in assay [1] was “binds”.

B1: translationally controlled tumor protein (TCTP), endogenous in Huh7 cells (protein, UniProt P13693 1-172)
chain: MIIYRDLISHDEMFSDIYKIREIADGLCLEVEGKMVSRTEGNIDDSLIGGNASAEGPEGEGTESTVITGVDIVMNHHLQETSFTKEAYKKYIKDYMKSIKGKLEEQRPERVKPFMTGAAEQIKHILANFKNYQFFIGENMNPDGMVALLDYREDGVTPYMIFFKDGLEMEKC
For B1, the binding result in assay [2] is on record as “binds”.
